This is one part of the list.
Compound: Cc1cc(ccc1-c1ccccc1)C(=O)N1CCCN(CC1)C(=O)CCl [compound 10]
Assay: probe-labelled cysteine peptide fold change vs DMSO (competition) (log2 fold change); higher = less target engagement (more negative = stronger competition)
Details: THP-1, incubation time: 4 h
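Also: competitive profiling in live THP-1 cells: cysteine peptides tagged with an iodoacetamide desthiobiotin (IA-DTB) probe, intensity after compound treatment relative to DMSO-treated cells.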

Target	probe-labelled cysteine peptide fold change (10 µM)	probe-labelled cysteine peptide fold change (50 µM)
CNOT4_O95628_175_AIQCVNNVVVDGR (UniProt O95628)	-0.0308	-0.303
COPS4_Q9BT78_378_QIQSLCFQVNNLLEK (UniProt Q9BT78)	0.074	0.0593
CNPY2_Q9Y2B0_171_TDLCDHALHISHDEL (UniProt Q9Y2B0)	-0.246	-0.0461
CNOT6L_Q96LI5_283_KHVDGCAIFFK (UniProt Q96LI5)	-0.0295	-0.239
CNBP_P62633_97+101_EQCCYNCGKPGHLAR (UniProt P62633)	0.0258	-0.446
COLEC10_Q9Y6Z7_121_AGTVCDCGR (UniProt Q9Y6Z7)	-0.373	-0.191
COQ8B_Q96D53_508_AHIACR (UniProt Q96D53)	-0.221	-1.08
COL15A1_P39059_965_GAIFPIPVRPHCK (UniProt P39059)	-0.0948	0.0369
COPB2_P35606_190_GVNCIDYYSGGDKPYLISGADDR (UniProt P35606)	-0.00395	0.000653
COPB2_P35606_40_SVDLHPTEPWMLASLYNGSVCVWNHETQTLVK (UniProt P35606)	0.211	0.122
CNOT1_A5YKK6_1287_FEIEVLCK (UniProt A5YKK6)	-0.0705	0.975
CNTRL_Q7Z7A1_1375_SLECEVEELHR (UniProt Q7Z7A1)	-0.0324	0.125
CNST_Q6PJW8_408_LQLAQTEACQDVAR (UniProt Q6PJW8)	-0.571	-0.127
COMT_P21964_238+241_GSSCFECTHYQSFLEYR (UniProt P21964)	-0.00343	-0.424
CNBP_P62633_161_CGESGHLAR (UniProt P62633)	0.118	0.129
COL4A3BP_Q9Y5P4_84_AVITPHDFDECR (UniProt Q9Y5P4)	0.179	0.232
COPB1_P53618_390_TLHSCSVR (UniProt P53618)	0.334	0.262
CMPK2_Q5EBM0_40_RFVLELPDCTLAHFALGADAPGDADAPDPR (UniProt Q5EBM0)	-0.175	-0.0666
COMT_P21964_119_IVDAVIQEHQPSVLLELGAYCGYSAVR (UniProt P21964)	0.0566	0.0296
CORO1A_P31146_285_HLEEPLSLQELDTSSGVLLPFFDPDTNIVYLCGK (UniProt P31146)	-0.137	0.22
COPA_P53621_1148_KILSACEK (UniProt P53621)	-0.212	-1.12
COPE_O14579_212+225_CSPTLLLLNGQAACHMAQGR (UniProt O14579)	-0.254	-0.429

Target	probe-labelled cysteine peptide fold change (10 µM)	probe-labelled cysteine peptide fold change (50 µM)
COMMD3_Q9UBI1_90_STLSTYLEDCK (UniProt Q9UBI1)	-0.0355	0.135
COPA_P53621_1148_ILSACEK (UniProt P53621)	0.0749	-0.0454
COPA_P53621_1169_NPTDAYQLNYDMHNPFDICAASYRPIYR (UniProt P53621)	0.0749	-0.127
COP1_Q8NHY2_704_DRKEDDTNEFVSAVCWR (UniProt Q8NHY2)	0.411	-0.248
CNN2_Q99439_215_CASQVGMTAPGTR (UniProt Q99439)	-0.0958	-0.449
COMT_P21964_238_GSSCFECTHYQSFLEYR (UniProt P21964)	0.0524	0.0733
COMMD4_Q9H0A8_34_LLCSQVLK (UniProt Q9H0A8)	0.0575	0.219
CMSS1_Q9BQ75_121_RLVIELEELNLPDSCFLK (UniProt Q9BQ75)	0.0787	-0.142
CORO1A_P31146_332_GLEVNKCEIAR (UniProt P31146)	-0.447	-1.1
CNBP_P62633_98_EQCCYNCGKPGHLAR (UniProt P62633)	0.0498	-0.421
COL4A3BP_Q9Y5P4_65_SEDETEYGCR (UniProt Q9Y5P4)	0.0067	0.372
CNPY3_Q9BT09_194_NHQEEDLTEFLCANHVLK (UniProt Q9BT09)	-0.302	0.294
COG7_P83436_505_YLSDSCSPR (UniProt P83436)	-0.224	-0.235
COG1_Q8WTW3_625_LCQSLGELCPHLK (UniProt Q8WTW3)	-0.144	-0.347
COL18A1_P39060_1604_GADFQCFQQAR (UniProt P39060)	-0.199	-0.187
COPA_P53621_254_GHYNNVSCAVFHPR (UniProt P53621)	0.0735	-0.0636
COQ8A_Q8NI60_620_MGGSFLICSK (UniProt Q8NI60)	0.0354	-0.0318
CNOT9_Q92600_252_QCLPDQLK (UniProt Q92600)	0.234	0.0576
COPG2_Q9UBF2_230_SQFAYCMLIR (UniProt Q9UBF2)	-0.504	0.323
COMTD1_Q86VU5_45_EQCLLPPEDSR (UniProt Q86VU5)	-0.125	-0.294
COPB1_P53618_888_ALSGYCGFMAANLYAR (UniProt P53618)	0.0772	-0.08
CNBP_P62633_97_EQCCYNCGK (UniProt P62633)	0.0238	0.328

Target	probe-labelled cysteine peptide fold change (10 µM)	probe-labelled cysteine peptide fold change (50 µM)
CNNM4_Q6P4Q7_108_STSCLELTK (UniProt Q6P4Q7)	-0.064	0.0895
COPA_P53621_453_VQVPNCDEIFYAGTGNLLLR (UniProt P53621)	-0.252	-0.118
COQ3_Q9NZJ6_155_ILDVGCGGGLLTEPLGR (UniProt Q9NZJ6)	-0.27	-0.101
COL4A3BP_Q9Y5P4_575_DNILCK (UniProt Q9Y5P4)	0.197	0.301
COMT_P21964_223_GTVLLADNVICPGAPDFLAHVR (UniProt P21964)	-0.0481	0.108
CNTRL_Q7Z7A1_1535_DSDFQCLSK (UniProt Q7Z7A1)	-0.0189	-0.45
CNBP_P62633_57_CGESGHLAK (UniProt P62633)	0.0688	-0.0367
COPG2_Q9UBF2_446_EAGLAHLCEFIEDCEHTVLATK (UniProt Q9UBF2)	-0.0275	0.0938
COPB2_P35606_234_TCVQTLEGHAQNVSCASFHPELPIIITGSEDGTVR (UniProt P35606)	-0.0371	0.224
CNBP_P62633_140_CGETGHVAINCSK (UniProt P62633)	0.154	0.341
COPG2_Q9UBF2_258_ETEDGHESPLFDFIESCLR (UniProt Q9UBF2)	-0.0965	-0.236
COPA_P53621_585_GNNVYCLDRECRPR (UniProt P53621)	-0.102	-0.299
CNOT7_Q9UIV1_13_ICEVWACNLDEEMKK (UniProt Q9UIV1)	0.177	-0.3
CNOT9_Q92600_91+99_VCNALALLQCVASHPETR (UniProt Q92600)	-0.0648	0.0754
COMT_P21964_207_DRYLPDTLLLEECGLLRK (UniProt P21964)	-0.145	-0.264
COPE_O14579_148_ALHQGDSLECTAMTVQILLK (UniProt O14579)	0.323	0.0262
COG2_Q14746_287_LLEFVPHHCR (UniProt Q14746)	0.00625	-0.0636
COMT_P21964_223_KGTVLLADNVICPGAPDFLAHVR (UniProt P21964)	-0.0533	-0.112
COPB2_P35606_689_CQFGLAQECLHHAQDYGGLLLLATASGNANMVNK (UniProt P35606)	0.201	0.303
COA7_Q96BR5_111_SIAACHNVGLLAHDGQVNEDGQPDLGK (UniProt Q96BR5)	-0.0863	-0.023
COMTD1_Q86VU5_191_ENCSAYYER (UniProt Q86VU5)	0.025	0.206
COPA_P53621_380_FPVFNMSYNPAENAVLLCTR (UniProt P53621)	0.0442	0.139

Target	probe-labelled cysteine peptide fold change (10 µM)	probe-labelled cysteine peptide fold change (50 µM)
COA6_Q5JTJ3_79_CLDENLEDASQCK (UniProt Q5JTJ3)	-0.00398	0.0284
COPB1_P53618_284_AAAQCYIDLIIK (UniProt P53618)	0.153	0.249
CMSS1_Q9BQ75_121_LVIELEELNLPDSCFLK (UniProt Q9BQ75)	0.061	0.0649
COQ8A_Q8NI60_620_KMGGSFLICSK (UniProt Q8NI60)	-0.389	-0.606
COMT_P21964_241_GSSCFECTHYQSFLEYR (UniProt P21964)	0.0648	-0.0597
CNOT10_Q9H9A5_504_NSNQLGGNTESSESSETCSSK (UniProt Q9H9A5)	-0.17	-0.347
COPG1_Q9Y678_516_CVMDDDNEVRDR (UniProt Q9Y678)	0.112	0.21
COG2_Q14746_579_IIQDLSDSCFGFLK (UniProt Q14746)	0.103	0.245
CNOT10_Q9H9A5_399_LAECCIAANK (UniProt Q9H9A5)	-0.0283	0.104
COPA_P53621_693_LGEVALLQGNHQIVEMCYQR (UniProt P53621)	-0.0967	-0.076
COMP_P49747_348_WGDACDNCR (UniProt P49747)	-0.311	0.114
CMTR1_Q8N1G2_191_KMIIEDETEFCGEELLHSVLQCK (UniProt Q8N1G2)	0.0946	-0.208
COPS6_Q7L5N1_299_TCNTMNQFVNK (UniProt Q7L5N1)	-0.0716	-0.199
COPS7B_Q9H9Q2_110_CIPYSVLLK (UniProt Q9H9Q2)	0.293	-0.0301
COPG1_Q9Y678_169_CSFDVVK (UniProt Q9Y678)	-0.158	0.202
COA7_Q96BR5_62_FNCEENQHSDSCYK (UniProt Q96BR5)	-0.126	0.0964
COPG1_Q9Y678_722+726_EDPTAVACTFSCMMK (UniProt Q9Y678)	-0.00753	-0.457
COPG1_Q9Y678_735_DCDPTTGETDDEGYEDEYVLEDLEVTVADHIQK (UniProt Q9Y678)	0.022	-0.107
COPS6_Q7L5N1_143_QVCEIIESPLFLK (UniProt Q7L5N1)	0.0642	0.121
